Article PMC4662715
No constants are given. Whether binding was seen depends on the method and setting. A result given as binding can be weak or reduced; the word gives no strength. Tags and fused reporters may be left off the sequences shown.

Tests used:
[1] = target: T1, CCR1-rHDL (human C-C chemokine receptor 1 with C-terminal 1D4 tag, in reconstituted high density lipoprotein) (human) (UniProt P32246); test: transferred cross-saturation (TCS) NMR, methyl-directed; 10 μM [u-2H, (Ile-, Leu-, Val-13C1H3)] MIP-1α variant with about 1/10 molar equivalent of CCR1-rHDL; both purified
T1 sequence: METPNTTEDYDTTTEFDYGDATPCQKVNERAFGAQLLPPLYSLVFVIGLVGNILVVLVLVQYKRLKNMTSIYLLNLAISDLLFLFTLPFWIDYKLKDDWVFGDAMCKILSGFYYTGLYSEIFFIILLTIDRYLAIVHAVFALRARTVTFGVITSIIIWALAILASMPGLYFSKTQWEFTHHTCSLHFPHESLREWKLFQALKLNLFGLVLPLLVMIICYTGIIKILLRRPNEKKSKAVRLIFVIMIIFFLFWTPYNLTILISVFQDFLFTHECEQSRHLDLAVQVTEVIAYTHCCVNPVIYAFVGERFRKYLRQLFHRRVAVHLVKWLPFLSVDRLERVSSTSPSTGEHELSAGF

[2] = target: T1, CCR1-rHDL (human C-C chemokine receptor 1 with C-terminal 1D4 tag, in reconstituted high density lipoprotein) (human); test: transferred cross-saturation (TCS) NMR, amide-directed; 50 μM [u-2H,15N] MIP-1α variant with about 3/50 molar equivalent of CCR1-rHDL or CCR5-rHDL; 20 mM HEPES, pH 6.0, 100 mM NaCl, 75 % D2O, 5 % glycerol; 15 °C; empty-rHDL control subtracted (ΔRR); spectra reconstructed by Co-ANAFOR; both purified

**Q.** What does the source list for MIP-1α variant (P8A/F13Y/E67Q) (ligand)?
**A.** binding [1]: binds; binding [2]: binds
